# Screen size: about 580,000 compounds; about 6,100 (1.1%) were called active. Inconclusive means that the source gave no clear call. Such entries were picked first, then a sample of the others. Calls follow the shape of the dose curve; as a rule, active = well fitted inhibition curve with a large enough effect; inconclusive = small, poorly fitted or top-dose-only effect, or another doubt; inactive = no such curve, though single readings can be large or run the other way. Potencies beside an inconclusive call are fits to weak or partial responses and may not hold up.
# Protein sequences, listed by entry. Tags and fused reporters are not part of them.
# UniProt P18054, whole entry, looked up: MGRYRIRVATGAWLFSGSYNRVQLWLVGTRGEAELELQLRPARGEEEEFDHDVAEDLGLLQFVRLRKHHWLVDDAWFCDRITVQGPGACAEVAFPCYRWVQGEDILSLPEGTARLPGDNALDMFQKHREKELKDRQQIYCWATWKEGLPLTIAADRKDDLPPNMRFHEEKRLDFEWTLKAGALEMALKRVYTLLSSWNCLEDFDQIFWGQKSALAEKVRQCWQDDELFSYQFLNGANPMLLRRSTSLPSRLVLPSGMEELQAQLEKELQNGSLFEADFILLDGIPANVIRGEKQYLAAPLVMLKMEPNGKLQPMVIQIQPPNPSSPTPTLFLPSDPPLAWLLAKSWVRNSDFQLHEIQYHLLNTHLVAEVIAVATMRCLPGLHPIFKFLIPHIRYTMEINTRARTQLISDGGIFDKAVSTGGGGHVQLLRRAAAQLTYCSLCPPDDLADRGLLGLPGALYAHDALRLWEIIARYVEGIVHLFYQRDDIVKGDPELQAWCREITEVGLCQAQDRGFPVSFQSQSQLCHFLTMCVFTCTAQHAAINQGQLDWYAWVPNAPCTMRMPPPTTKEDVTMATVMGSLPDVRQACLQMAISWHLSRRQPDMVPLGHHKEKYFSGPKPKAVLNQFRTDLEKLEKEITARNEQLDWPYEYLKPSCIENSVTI
# Molecular target: Polyunsaturated fatty acid lipoxygenase ALOX12 (Homo sapiens) (UniProt P18054)
# Test: Primary qHTS assay for inhibitors of human arachidonate 12S-lipoxygenase (ALOX12): Round 2
# Conditions: purified 12hLO, xylenol orange hydroperoxide absorbance; activity change, negative = inhibition: at 108 µM (top of the series) unless noted
# Outline: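 Purified human 12hLO at 150 nM in 25 mM Hepes, 0.01% Triton X-100, pH 7.0, preincubated 15 min at room temperature with compound. Reaction started with 40 uM arachidonic acid, 30 min at room temperature. Hydroperoxide measured by Fe-xylenol orange, 573/405 nm absorbance ratio.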
# % is scaled to controls: 0 for no effect and ±100 for the full control effect; potency is read from the fitted curve at half-maximal effect.
Structure (SMILES),"activity change, negative = inhibition",Potency
C#CCOCCOCCOCCNc1nc(N2CCN(C(=O)Cn3cc(CC(C)O)nn3)CC2)nc(N2CCN(C(=O)[C@H]([C@@H](C)O)n3cc(CCCCN)nn3)CC2)n1 (stereo not given in full),inactive: -15.6%,
CCOc1ccc(/C=N/NC(=O)CN2CCSCC2)cc1,,"inconclusive: 1.41 µM [inhibitor, full curve, poor fit]"
O=C(C1CC1)N1C[C@@H]2OCC(=O)N(CC3CC3)[C@@H]2C1,inactive: 24.2% [at 176 µM],
CC1CN(C(=O)Nc2ccc(C(=O)NCCc3ccc(Cl)cc3)cc2)c2ccccc2S1 (stereo not given),,"inconclusive: 126 µM [inhibitor, partial curve, poor fit]"
Cc1ccccc1NC(=O)CSCn1nnc2c(=O)[nH]c(Cc3ccc(F)cc3)nc21,,"inconclusive: 89.1 µM [inhibitor, single point]"
CCCC(=O)N1c2ccccc2C(=C2SC(C(=O)OC)=C(C(=O)OC)S2)C(=S)C1(C)C,,active: 22.4 µM
C=CCN(c1ccccc1)S(=O)(=O)c1cccc(C(=O)Nc2nc3ccccc3[nH]2)c1,inactive: 10.1%,
Cc1ccc2c(c1)c1n[nH]c(=S)nc1n2CCc1ccccc1,inactive: -0.497%,
Cc1cc(C(=O)OCC(=O)c2ccc(OC(=O)c3ccccc3)cc2)c2ccccc2n1,,"inconclusive: 70.8 µM [inhibitor, partial curve, poor fit]"
COc1ccc2c3n(nc2c1)CCN=C3c1ccc(Cl)cc1,inactive: -15.7%,
CC(=O)Oc1cccc2c1C(=O)c1c(OC(C)=O)cc(C(=O)O)cc1C2=O,inactive: -16%,
CCOC1=NC(=C(c2ccccc2)c2ccccc2)OC1=O,,"inconclusive: 3.16 µM [inhibitor, full curve]"
COc1ccccc1-c1noc(CCC(=O)Nc2cccc(C(F)(F)F)c2)n1,inactive: 1.1%,
O=C(OCc1ccccc1Cl)c1cccc(O)c1,,"inconclusive: 112 µM [inhibitor, single point]"
CC(=O)N1C(=O)/C(=C2\SC(=S)N(c3c(C)n(C)n(-c4ccccc4)c3=O)C2=O)c2ccccc21,,"inconclusive: 7.94 µM [inhibitor, full curve, poor fit]"
O=S(=O)(c1ccccc1Cl)N1CCCC1c1nc(-c2ccccc2Cl)no1 (stereo not given),inactive: -44.8%,
FC(F)(F)c1cccc(OCCN2CCN(Cc3ccccc3)CC2)c1,,"inconclusive: 0.891 µM [inhibitor, full curve]"
COc1ccc(OCC(O)CNCc2ccco2)cc1 (stereo not given),inactive: 5.79%,
CCOc1ccc(/C(O)=C2/C(=O)C(=O)N(c3ccccn3)C2c2ccc(Cl)cc2)c(C)c1 (stereo not given),,"inconclusive: 44.7 µM [inhibitor, partial curve, poor fit]"
Cc1ncc2c(c1CNC(=O)c1ccccc1OC(F)F)CCNC2,,"inconclusive: 22.4 µM [inhibitor, full curve, poor fit]"
CCN(C(=O)CN1C(=O)/C(=C/c2ccccc2)SC1=S)C1CCS(=O)(=O)C1 (stereo not given),inactive: 4.23%,
O=C(CC1OC(=O)c2ccccc21)Nc1cc(Cl)ccc1N1CCOCC1 (stereo not given),inactive: 0%,
Cc1cc(C)c(C(O)c2ncc(-c3ccccc3F)[nH]2)c(C)c1 (stereo not given),inactive: -0.535%,
NC(=O)CCCCC(=O)OCCCc1cccs1,inactive: -5.67%,

Structure (SMILES),"activity change, negative = inhibition",Potency
Cn1c(C(=O)NCCc2ccccc2)cc2cc(S(=O)(=O)N3CCCCC3)ccc21,,"inconclusive: 2.51 µM [inhibitor, full curve, poor fit]"
COCCCNC(=O)c1ccccc1C(F)(F)F,inactive: -0.0724%,
COc1ccc(CN2C(=O)c3ccccc3C2=O)cc1,inactive: -14.6%,
O=C(CCc1ccc(S(=O)(=O)NCCc2ccccc2)cc1)NCc1ccco1,,"inconclusive: 0.0891 µM [inhibitor, full curve, poor fit]"
COc1ccc(CC(=O)Nc2ccc(-c3noc(-c4cc(OC)c(OC)c(OC)c4)n3)cc2)cc1,,"inconclusive: 126 µM [inhibitor, partial curve, poor fit]"
Cn1c(NC(=S)Nc2ccccc2)nc2ccccc21,,"inconclusive: 35.5 µM [inhibitor, partial curve]"
COc1ccc(/C=C(\NC(=O)c2ccccc2)C(=O)NCc2cccnc2)cc1,inactive: -5.13%,
Cn1cc([C@]2(O)C(=O)Nc3ccc(Br)cc32)c2ccccc21,,"inconclusive: 56.2 µM [inhibitor, partial curve, poor fit]"
Oc1c(Br)cc(C2N=C(c3ccccc3)NO2)cc1Br (stereo not given),,active: 28.2 µM
COc1ccccc1CNc1nc2ccccc2nc1NS(=O)(=O)c1ccc(C)c(C)c1,inactive: 5.01%,
COc1ccc(C(=O)NC(=S)NCCc2ccccc2)cc1,,active: 15.8 µM
N#Cc1cccc(-c2cncnc2NCc2ccccc2)c1,,"inconclusive: 5.62 µM [inhibitor, full curve, poor fit]"
Cc1cccc(Nc2nc(-c3ccc(O)c(O)c3)cs2)n1,,active: 28.2 µM
Cc1ccc(S(=O)(=O)N2CCN(C(=O)CSc3ccccn3)CC2)c(C)c1,,"inconclusive: 35.5 µM [inhibitor, full curve, poor fit]"
CCOC(=O)C1CCCNC1=O (stereo not given),,"inconclusive: 112 µM [inhibitor, single point]"
CCC(C)NC(=O)[C@@H](NC(=O)N1CCn2c1nc1ccccc12)C(C)C (stereo not given in full),inactive: 27.4%,
C[C@H]1CN([C@@H](C)CO)C(=O)CCCn2cc(nn2)CO[C@@H]1CN(C)C(=O)C1CC1,,"inconclusive: 112 µM [inhibitor, single point]"
COc1ccc(-c2c(C#N)c(SCC(N)=O)nc3c2CCCC3)cc1,,"inconclusive: 39.8 µM [inhibitor, single point]"
Cc1ccc(-n2nc(-c3ccc(OC(F)(F)F)cc3)cc2N)cc1C,,"inconclusive: 126 µM [inhibitor, single point]"
Cc1ccc(NN=Nc2nc3c([nH]2)c(=O)n(C)c(=O)n3C)cc1,,"inconclusive: 10 µM [inhibitor, full curve]"
CN(c1ccc(OCC(=O)OCC(=O)Nc2ccc([N+](=O)[O-])cc2)cc1)S(=O)(=O)c1cccs1,,"inconclusive: 3.98 µM [inhibitor, full curve, poor fit]"
CC1=NOC2(CCN(Cc3ccccc3)CC2)C1,,"inconclusive: 28.2 µM [inhibitor, full curve, poor fit]"
O=C(NC1CCc2ccccc21)c1ccc2ccccc2n1 (stereo not given),,"inconclusive: 31.6 µM [inhibitor, partial curve, poor fit]"
NS(=O)(=O)c1ccc(CNC(=O)c2cc(-c3cccnc3)nc3ccc(Br)cc23)cc1,,"inconclusive: 28.2 µM [inhibitor, single point]"

Structure (SMILES),"activity change, negative = inhibition",Potency
CCCCNc1nc2c(c(=O)n(Cc3ccc(Br)cc3)c(=O)n2C)n1C,,"inconclusive: 70.8 µM [inhibitor, partial curve, poor fit]"
Cc1c(/C=C2\SC(=Nc3cccc(C(=O)O)c3)NC2=O)c2ccccc2n1C,,"inconclusive: 50.1 µM [inhibitor, partial curve, poor fit]"
Cc1cc(C)c(S(=O)(=O)ON2C(=O)c3ccccc3C2=O)cc1C,,"inconclusive: 15.8 µM [inhibitor, full curve, poor fit]"
FC(F)(F)c1ccccc1CNCc1ccncc1,,"inconclusive: 28.2 µM [inhibitor, partial curve]"
Cc1cccc(Cn2c(NCCN3CCOCC3)nc3c2c(=O)n(C)c(=O)n3C)c1,inactive: 5.54%,
Cc1ncc(CSSCc2cnc(C)c(O)c2CO)c(CO)c1O,,"inconclusive: 100 µM [inhibitor, single point]"
O=C1CCCCC(C(=O)NCCc2ccncc2)N1 (stereo not given),inactive: 39.7%,
COC1C(=O)N(c2cccc(F)c2)C12CCN(Cc1ccc(F)cc1F)CC2 (stereo not given),inactive: -18.6%,
Cc1cc(=O)n2nc(N3CCCC(C(=O)N4CCOCC4)C3)sc2n1 (stereo not given),,"inconclusive: 1 µM [inhibitor, full curve, poor fit]"
Nc1nc(-c2ccc3c(c2)CCCC3)c(CC(=O)O)s1,,"inconclusive: 50.1 µM [inhibitor, partial curve, poor fit]"
CCN1C(=O)CCN(S(C)(=O)=O)CC12CCOCC2,inactive: 3.68%,
Cc1cccc(N2CCN(C(=O)c3ccc(N4CCCC4=O)cc3)CC2C)c1 (stereo not given),inactive: 0% [at 57.4 µM],
CCOC(=O)c1sc(-c2ccc3c(c2)OCO3)cc1NC(=O)c1cnccn1,,"inconclusive: 35.5 µM [inhibitor, partial curve, poor fit]"
COc1ccc(Cl)cc1S(=O)(=O)Nc1ccc2c(c1)n(C)c(=O)n2C,,"inconclusive: 126 µM [inhibitor, partial curve, poor fit]"
CNCc1ccccc1OC(F)(F)F,,"inconclusive: 6.31 µM [inhibitor, full curve]"
NC(=O)C1CCN(c2nc(-c3cccc(Cl)c3)cs2)CC1,,"inconclusive: 100 µM [inhibitor, single point]"
COc1ccc(Nc2nc(C)c3ccccc3n2)cc1,,"inconclusive: 35.5 µM [inhibitor, partial curve, poor fit]"
C#CCOc1c(Br)cc(C2C(C(=O)OC)=C(C)NC3=C2C(=O)c2ccccc23)cc1OCC (stereo not given),,"inconclusive: 100 µM [inhibitor, partial curve, poor fit]"
O=C1CC(c2ccccc2)N(C(=O)C2CC2)CCCN(C(=O)NCCc2ccccc2)CCN1 (stereo not given),inactive: 29.9%,
O=C(Cc1ccc(NC(=O)C2CCCN(C(=O)C3CCCCC3)C2)cc1)Nc1cccc(C(=O)N2CCCC2)c1 (stereo not given),,"inconclusive: 39.8 µM [inhibitor, single point]"
COCCNC(=O)c1onc(CSc2cccc(C)c2)c1C(=O)O,,"inconclusive: 50.1 µM [inhibitor, partial curve, poor fit]"
CCCCN1C=C(OC(=O)c2ccccc2OC)c2ccccc2S1(=O)=O,inconclusive: -31.9% [inhibitor],

# Record cards, as listed above.
# FC(F)(F)c1cccc(OCCN2CCN(Cc3ccccc3)CC2)c1 in the list: Potency: inconclusive: 0.891 µM [inhibitor, full curve]
# Cn1cc([C@]2(O)C(=O)Nc3ccc(Br)cc32)c2ccccc21 in the list: Potency: inconclusive: 56.2 µM [inhibitor, partial curve, poor fit]

# Reformatted as tab-separated lines: part of the list above.
Structure (SMILES)	activity change, negative = inhibition	Potency
Cc1ncc2c(c1CNC(=O)c1ccccc1OC(F)F)CCNC2		inconclusive: 22.4 µM [inhibitor, full curve, poor fit]
CCN(C(=O)CN1C(=O)/C(=C/c2ccccc2)SC1=S)C1CCS(=O)(=O)C1 (stereo not given)	inactive: 4.23%	
